This list holds what a sample rich in targets with a hit left over. The data scatter; read single values as rough. The entries are a selection whose mix differs from that of the whole data set.
compound: COC(=O)/C=C/c1ccccc1 [methyl cinnamate]; experiment: log2 ratio of iodoacetamide-alkyne labeling of the cysteine site, DMSO over compound (competition); higher = stronger covalent engagement of the cysteine by the compound, active = 1 or more; settings: 500 µM; treatment time 1 h; system: HEK293T cell lysate
Procedure, shortened: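 The log2 competition ratio per cysteine is defined as mean reporter intensity in control channels over mean reporter intensity in compound channels. Lysate from HEK293T cells (2 mg/mL) received electrophile (500 µM) or vehicle for 1 h at ambient temperature, followed by iodoacetamide alkyne for 1 h. Samples were clicked to sCIP-TMT reagents, pooled, trypsin-digested overnight at 37 °C, streptavidin-enriched, acid-eluted and run on Orbitrap Eclipse LC-MS/MS with FAIMS, with quantification in FragPipe. Three replicates with duplicate channels were used, and any cysteine quantified in only one replicate was excluded.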

By UniProt entry, the sequences of proteins in these tests, tags left out. Where a name states a change or a piece, a line headed by the entry shows the natural chain unless it says otherwise.
UniProt Q14692: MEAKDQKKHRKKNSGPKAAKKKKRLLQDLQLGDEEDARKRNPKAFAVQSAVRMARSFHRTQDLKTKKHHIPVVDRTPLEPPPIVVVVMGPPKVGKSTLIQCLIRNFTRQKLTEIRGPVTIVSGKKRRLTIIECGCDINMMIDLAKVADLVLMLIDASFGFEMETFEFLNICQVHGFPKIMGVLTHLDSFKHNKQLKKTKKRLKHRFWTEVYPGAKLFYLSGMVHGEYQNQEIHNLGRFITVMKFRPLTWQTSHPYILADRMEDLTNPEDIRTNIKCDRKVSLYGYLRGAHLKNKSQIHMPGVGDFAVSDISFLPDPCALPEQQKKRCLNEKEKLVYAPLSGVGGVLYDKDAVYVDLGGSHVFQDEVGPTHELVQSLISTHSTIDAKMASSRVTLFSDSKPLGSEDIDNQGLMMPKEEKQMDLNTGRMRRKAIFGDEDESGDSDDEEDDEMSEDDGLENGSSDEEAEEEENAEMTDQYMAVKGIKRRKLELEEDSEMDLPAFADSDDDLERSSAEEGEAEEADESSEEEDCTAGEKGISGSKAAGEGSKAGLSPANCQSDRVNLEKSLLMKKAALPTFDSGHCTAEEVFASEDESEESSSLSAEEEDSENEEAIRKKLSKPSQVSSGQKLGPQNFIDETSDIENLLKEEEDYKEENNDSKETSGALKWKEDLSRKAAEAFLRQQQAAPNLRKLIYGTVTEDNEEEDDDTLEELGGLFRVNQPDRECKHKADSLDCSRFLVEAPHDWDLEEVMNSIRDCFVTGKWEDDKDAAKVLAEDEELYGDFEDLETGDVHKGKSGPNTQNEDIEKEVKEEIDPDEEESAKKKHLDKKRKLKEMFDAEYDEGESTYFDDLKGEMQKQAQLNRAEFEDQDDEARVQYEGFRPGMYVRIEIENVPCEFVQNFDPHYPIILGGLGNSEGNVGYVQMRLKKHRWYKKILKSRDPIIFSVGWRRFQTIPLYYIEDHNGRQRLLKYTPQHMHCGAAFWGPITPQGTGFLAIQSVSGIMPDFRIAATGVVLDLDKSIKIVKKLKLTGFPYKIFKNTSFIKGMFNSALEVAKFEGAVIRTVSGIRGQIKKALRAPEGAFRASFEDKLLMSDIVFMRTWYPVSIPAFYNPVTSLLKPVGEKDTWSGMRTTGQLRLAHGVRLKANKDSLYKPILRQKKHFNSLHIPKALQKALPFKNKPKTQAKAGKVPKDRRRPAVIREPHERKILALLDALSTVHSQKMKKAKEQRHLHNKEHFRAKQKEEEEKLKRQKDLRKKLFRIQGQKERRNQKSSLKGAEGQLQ
UniProt Q14493, whole entry, looked up: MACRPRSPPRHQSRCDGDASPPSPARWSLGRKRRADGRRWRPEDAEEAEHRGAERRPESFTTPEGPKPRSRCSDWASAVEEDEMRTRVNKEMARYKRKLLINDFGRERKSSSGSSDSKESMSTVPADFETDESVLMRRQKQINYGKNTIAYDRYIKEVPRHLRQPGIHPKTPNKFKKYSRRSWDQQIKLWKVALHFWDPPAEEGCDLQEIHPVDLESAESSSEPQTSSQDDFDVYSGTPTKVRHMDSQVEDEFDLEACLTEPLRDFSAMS
UniProt Q14203, whole entry, looked up: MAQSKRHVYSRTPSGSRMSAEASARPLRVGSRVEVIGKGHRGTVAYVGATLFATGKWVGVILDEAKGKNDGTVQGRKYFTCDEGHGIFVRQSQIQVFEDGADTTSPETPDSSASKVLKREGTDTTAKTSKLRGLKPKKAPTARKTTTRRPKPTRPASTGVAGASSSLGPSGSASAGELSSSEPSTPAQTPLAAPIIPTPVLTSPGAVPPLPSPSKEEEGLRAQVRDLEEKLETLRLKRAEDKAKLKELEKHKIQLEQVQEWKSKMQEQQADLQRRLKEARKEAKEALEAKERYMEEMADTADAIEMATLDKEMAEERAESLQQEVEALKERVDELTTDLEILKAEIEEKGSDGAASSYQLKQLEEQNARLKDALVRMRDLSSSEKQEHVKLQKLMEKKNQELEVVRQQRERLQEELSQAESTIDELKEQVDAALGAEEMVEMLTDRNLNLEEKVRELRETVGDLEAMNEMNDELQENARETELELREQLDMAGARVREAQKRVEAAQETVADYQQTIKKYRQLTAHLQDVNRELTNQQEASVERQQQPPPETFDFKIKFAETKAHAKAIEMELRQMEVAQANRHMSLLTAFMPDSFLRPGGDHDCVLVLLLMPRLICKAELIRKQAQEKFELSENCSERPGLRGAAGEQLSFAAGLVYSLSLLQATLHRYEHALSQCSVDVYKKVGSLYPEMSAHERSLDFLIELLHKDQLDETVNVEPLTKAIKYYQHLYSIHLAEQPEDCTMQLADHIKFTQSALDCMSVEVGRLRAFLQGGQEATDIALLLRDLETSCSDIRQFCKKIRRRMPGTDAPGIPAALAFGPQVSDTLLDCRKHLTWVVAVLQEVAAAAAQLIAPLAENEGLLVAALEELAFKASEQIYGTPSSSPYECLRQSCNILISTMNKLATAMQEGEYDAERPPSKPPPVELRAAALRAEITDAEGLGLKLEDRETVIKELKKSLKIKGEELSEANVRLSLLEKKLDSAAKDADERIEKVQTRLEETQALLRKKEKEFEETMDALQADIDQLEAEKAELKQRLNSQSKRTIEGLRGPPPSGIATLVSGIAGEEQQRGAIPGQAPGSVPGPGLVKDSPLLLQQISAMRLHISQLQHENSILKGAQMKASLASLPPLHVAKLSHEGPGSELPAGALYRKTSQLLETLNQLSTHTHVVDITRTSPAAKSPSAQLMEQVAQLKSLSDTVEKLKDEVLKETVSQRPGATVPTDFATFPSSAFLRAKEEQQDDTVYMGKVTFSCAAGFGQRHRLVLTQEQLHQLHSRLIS
UniProt Q14980: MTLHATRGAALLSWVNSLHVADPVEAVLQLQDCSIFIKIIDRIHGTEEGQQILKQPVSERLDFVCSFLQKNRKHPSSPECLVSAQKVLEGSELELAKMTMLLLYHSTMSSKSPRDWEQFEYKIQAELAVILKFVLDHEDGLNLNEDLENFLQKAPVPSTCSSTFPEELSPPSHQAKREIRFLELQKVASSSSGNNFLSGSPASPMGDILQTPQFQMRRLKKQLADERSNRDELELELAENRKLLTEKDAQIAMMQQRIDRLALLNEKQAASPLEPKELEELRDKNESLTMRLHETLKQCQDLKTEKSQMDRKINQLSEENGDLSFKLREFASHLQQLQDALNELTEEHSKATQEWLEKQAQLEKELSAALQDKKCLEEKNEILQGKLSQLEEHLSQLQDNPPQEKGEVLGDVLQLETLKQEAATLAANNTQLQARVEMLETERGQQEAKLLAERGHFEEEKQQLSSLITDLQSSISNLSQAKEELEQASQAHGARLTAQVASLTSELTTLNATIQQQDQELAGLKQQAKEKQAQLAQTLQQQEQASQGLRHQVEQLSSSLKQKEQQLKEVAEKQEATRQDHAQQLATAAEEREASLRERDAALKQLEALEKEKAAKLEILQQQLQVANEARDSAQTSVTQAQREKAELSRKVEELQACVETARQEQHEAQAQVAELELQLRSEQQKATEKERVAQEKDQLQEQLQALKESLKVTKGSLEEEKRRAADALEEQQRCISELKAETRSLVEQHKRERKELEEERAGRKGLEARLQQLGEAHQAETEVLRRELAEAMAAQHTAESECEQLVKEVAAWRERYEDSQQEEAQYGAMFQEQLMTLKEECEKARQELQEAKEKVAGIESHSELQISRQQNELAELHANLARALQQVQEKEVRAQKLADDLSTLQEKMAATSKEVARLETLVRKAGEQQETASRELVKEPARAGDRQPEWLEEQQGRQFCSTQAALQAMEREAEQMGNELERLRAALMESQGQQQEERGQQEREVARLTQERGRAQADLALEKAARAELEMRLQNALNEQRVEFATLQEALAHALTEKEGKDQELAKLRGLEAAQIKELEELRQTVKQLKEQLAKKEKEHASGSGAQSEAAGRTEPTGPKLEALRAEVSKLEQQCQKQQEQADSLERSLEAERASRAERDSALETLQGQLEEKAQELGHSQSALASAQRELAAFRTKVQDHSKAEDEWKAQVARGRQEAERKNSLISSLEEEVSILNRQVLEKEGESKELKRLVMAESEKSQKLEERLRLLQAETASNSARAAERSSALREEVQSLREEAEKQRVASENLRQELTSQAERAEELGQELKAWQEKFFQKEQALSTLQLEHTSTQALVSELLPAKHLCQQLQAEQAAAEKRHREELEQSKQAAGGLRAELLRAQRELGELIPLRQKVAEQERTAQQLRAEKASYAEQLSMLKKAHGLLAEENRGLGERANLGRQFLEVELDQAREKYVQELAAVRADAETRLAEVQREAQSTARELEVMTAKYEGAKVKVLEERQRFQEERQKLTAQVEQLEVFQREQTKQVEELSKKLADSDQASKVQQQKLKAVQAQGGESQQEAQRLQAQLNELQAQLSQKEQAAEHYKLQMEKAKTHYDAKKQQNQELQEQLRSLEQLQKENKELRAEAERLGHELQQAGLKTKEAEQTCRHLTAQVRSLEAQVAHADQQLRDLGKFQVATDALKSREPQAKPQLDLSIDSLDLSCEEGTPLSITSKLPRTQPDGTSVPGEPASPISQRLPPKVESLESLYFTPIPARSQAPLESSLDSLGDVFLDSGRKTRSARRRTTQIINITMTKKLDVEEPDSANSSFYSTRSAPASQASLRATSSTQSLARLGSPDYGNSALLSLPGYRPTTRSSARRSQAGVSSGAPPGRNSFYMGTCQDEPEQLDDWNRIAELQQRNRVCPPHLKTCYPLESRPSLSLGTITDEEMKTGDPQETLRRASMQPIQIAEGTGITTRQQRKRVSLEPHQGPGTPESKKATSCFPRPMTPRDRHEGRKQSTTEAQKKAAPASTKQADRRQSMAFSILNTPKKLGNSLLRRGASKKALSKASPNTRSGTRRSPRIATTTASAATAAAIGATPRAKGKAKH
UniProt Q14166: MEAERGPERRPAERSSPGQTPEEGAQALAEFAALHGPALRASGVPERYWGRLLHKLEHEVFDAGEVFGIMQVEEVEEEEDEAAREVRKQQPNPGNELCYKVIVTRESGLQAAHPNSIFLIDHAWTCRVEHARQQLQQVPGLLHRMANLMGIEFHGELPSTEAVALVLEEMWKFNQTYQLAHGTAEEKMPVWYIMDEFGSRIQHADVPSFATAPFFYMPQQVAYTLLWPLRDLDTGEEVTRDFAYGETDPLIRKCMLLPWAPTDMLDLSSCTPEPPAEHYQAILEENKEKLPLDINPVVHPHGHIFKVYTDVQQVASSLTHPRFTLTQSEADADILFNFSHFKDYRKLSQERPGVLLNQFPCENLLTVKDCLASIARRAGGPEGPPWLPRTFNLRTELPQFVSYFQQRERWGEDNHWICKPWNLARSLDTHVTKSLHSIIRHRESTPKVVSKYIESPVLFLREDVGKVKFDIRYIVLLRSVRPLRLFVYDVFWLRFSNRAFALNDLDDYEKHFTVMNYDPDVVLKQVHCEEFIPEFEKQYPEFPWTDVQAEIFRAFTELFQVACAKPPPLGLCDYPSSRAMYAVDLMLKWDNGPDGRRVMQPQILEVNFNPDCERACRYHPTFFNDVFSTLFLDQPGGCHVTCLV
UniProt Q13523: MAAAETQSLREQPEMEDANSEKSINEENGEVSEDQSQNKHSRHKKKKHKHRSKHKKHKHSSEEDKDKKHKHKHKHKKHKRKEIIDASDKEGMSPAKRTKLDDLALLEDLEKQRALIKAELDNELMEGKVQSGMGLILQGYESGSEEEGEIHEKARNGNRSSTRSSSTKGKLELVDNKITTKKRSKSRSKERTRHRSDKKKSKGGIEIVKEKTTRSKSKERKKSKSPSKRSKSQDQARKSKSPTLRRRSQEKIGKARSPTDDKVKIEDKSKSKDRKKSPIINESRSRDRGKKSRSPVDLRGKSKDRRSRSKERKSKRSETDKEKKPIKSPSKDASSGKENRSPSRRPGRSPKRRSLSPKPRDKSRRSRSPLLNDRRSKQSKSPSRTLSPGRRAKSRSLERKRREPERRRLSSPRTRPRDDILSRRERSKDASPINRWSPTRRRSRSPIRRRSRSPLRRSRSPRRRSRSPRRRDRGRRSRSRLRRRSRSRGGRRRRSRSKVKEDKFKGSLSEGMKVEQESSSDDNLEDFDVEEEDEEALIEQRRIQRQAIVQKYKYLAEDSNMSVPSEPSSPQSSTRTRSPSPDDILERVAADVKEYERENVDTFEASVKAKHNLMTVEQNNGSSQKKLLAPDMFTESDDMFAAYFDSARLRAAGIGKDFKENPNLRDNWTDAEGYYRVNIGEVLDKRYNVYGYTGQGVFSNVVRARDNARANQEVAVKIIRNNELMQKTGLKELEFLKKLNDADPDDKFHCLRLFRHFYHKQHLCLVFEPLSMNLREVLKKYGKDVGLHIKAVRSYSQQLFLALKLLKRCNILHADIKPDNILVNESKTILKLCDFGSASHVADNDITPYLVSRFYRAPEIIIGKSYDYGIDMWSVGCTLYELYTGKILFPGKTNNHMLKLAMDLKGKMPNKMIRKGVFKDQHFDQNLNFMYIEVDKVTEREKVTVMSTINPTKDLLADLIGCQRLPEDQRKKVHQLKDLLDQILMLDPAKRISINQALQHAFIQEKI

log2 ratio of iodoacetamide-alkyne labeling, inactive:
DCTN2 C256 (UniProt Q13561) 0.262
BMS1 C317 (UniProt Q14692) -0.0977
UniProt Q13885_C127 0.428
RIPK1 C325 (UniProt Q13546) 0.229
PIN1 C113 (UniProt Q13526) 0.238
MDC1 C128 (UniProt Q14676) 0.00217
ZNF638 C652 (UniProt Q14966) 0.192
HLTF C442 (UniProt Q14527) 0.0178
UBE4A C79 (UniProt Q14139) 0.255
DYNC1H1 C1999 (UniProt Q14204) 0.196
SPCS2 C26 (UniProt Q15005) 0.466
SLBP C72 (UniProt Q14493) 0.257
DCTN1 C636 (UniProt Q14203) 0.473
BMS1 C725 (UniProt Q14692) 0.403
NUMA1 C1136 (UniProt Q14980) 0.183
TTLL12 C528 (UniProt Q14166) -0.204
FKBP8 C295 (UniProt Q14318) -0.0199
FLNC C1448 (UniProt Q14315) 0.318
SQSTM1 C27 (UniProt Q13501) 0.151
DYNC1H1 C4644 (UniProt Q14204) 0.0658
CTTN C246 (UniProt Q14247) 0.297
TTLL12 C361 (UniProt Q14166) -0.071
PUM1 C1179 (UniProt Q14671) -0.24
NUMA1 C1729 (UniProt Q14980) 0.0494
MCM6 C302 (UniProt Q14566) 0.175
USP10 C254 (UniProt Q14694) 0.273
SPTAN1 C1930 (UniProt Q13813) 0.185
GOLGB1 C1257 (UniProt Q14789) 0.147
TTLL12 C126 (UniProt Q14166) -0.118
NCAPH C402 (UniProt Q15003) 0.237
GAPVD1 C741 (UniProt Q14C86) 0.268
SHROOM2 C836 (UniProt Q13796) 0.513
NCAPH C316 (UniProt Q15003) -0.237
PRPF4B C962 (UniProt Q13523) -0.087
NUMA1 C1937 (UniProt Q14980) 0.227
BOP1 C108 (UniProt Q14137) 0.221
KANK1 C781 (UniProt Q14678) 0.0762

For convenience, some entries already given:
log2 ratio of iodoacetamide-alkyne labeling, inactive:
DCTN2 C256 (UniProt Q13561) 0.262
BMS1 C317 (UniProt Q14692) -0.0977
UniProt Q13885_C127 0.428
RIPK1 C325 (UniProt Q13546) 0.229
PIN1 C113 (UniProt Q13526) 0.238
MDC1 C128 (UniProt Q14676) 0.00217
ZNF638 C652 (UniProt Q14966) 0.192
